Test results as given in article PMC10213016.
No constants are given. Whether binding was seen depends on the method and setting. Binding seen in cells or lysates may run through a third protein. Some results given as binding are weak or reduced against the parent protein; the word gives no strength.

Protein sequences, listed by entry. Tags and fused reporters are not part of them.
UniProt P54274: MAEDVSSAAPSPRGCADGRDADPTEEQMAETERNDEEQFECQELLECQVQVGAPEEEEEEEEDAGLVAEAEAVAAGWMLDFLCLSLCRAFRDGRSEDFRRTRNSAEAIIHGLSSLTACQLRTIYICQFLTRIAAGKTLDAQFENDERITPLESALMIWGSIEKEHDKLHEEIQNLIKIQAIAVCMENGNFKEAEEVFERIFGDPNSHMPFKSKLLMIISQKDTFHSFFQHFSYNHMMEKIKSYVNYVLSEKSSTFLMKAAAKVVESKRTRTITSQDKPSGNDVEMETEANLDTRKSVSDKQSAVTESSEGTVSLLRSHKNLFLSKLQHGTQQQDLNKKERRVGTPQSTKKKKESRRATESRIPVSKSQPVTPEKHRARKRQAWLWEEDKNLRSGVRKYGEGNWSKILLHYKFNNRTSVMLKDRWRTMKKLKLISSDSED
UniProt Q15554: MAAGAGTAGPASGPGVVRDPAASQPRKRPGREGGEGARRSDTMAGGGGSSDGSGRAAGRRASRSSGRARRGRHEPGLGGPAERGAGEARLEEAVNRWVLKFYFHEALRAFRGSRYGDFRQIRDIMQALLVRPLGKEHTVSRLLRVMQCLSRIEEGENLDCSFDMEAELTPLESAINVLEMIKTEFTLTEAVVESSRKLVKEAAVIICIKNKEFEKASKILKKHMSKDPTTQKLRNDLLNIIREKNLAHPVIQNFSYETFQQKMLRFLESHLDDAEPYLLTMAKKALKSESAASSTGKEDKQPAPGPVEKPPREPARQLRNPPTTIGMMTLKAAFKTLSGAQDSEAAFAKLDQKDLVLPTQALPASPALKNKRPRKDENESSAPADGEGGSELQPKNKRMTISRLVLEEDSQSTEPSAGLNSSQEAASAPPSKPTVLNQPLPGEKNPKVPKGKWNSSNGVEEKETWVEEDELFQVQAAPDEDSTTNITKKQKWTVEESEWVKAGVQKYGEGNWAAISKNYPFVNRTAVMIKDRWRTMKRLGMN
UniProt O43524: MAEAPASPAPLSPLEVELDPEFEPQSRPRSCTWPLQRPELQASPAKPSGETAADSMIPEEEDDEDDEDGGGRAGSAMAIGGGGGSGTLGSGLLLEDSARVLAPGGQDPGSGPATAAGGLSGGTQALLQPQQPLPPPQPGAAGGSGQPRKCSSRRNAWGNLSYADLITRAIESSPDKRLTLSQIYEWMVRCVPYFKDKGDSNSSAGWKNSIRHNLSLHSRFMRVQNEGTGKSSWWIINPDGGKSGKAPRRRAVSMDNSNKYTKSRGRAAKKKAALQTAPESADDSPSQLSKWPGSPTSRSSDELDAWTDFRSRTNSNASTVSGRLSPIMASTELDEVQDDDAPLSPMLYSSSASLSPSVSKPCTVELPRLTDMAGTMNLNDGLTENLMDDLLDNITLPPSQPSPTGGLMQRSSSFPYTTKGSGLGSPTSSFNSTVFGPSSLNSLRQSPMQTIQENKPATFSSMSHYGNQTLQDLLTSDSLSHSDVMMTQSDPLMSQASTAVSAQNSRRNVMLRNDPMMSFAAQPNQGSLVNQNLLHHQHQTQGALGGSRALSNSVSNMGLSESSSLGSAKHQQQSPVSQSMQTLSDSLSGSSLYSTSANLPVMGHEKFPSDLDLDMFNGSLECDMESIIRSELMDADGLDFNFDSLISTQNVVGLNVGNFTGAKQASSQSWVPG

What was measured:
[1] = target: TRF1 (human (endogenous in myotubes and BJ-HELT fibroblasts)) (UniProt P54274); test: proximity ligation; PLA TRF1-FOXO3a in fixed BJ-HELT cells transfected with siCtrl or siTRF2; nuclear spots counted
[2] = target: TRF1 (human (endogenous in myotubes and BJ-HELT fibroblasts)) (UniProt P54274); test: proximity ligation; PLA between TRF1 and FOXO3a in fixed human myotubes transduced with shScramble or shTERF2; nuclear spots counted
[3] = target: Telomeric repeat binding factor 2 (TRF2) (human (endogenous in BJ-HELT fibroblasts and skeletal muscle biopsies)) (UniProt Q15554); test: condition: only cells under starvation (DMEM without FBS, 1 week); proximity ligation; PLA TRF2-FOXO3a in fixed BJ-HELT cells under starvation (DMEM without FBS, 1 week)
[4] = target: Telomeric repeat binding factor 2 (TRF2) (human (endogenous in BJ-HELT fibroblasts and skeletal muscle biopsies)) (UniProt Q15554); test: proximity ligation; PLA TRF2-FOXO3a in fixed BJ-HELT cells treated with bleomycin (50 μg/mL, 24 hr); untreated and UV-exposed cells in the same panel; Duolink In Situ Red Mouse/Rabbit kit
[5] = target: Telomeric repeat binding factor 2 (TRF2) (human (endogenous in BJ-HELT fibroblasts and skeletal muscle biopsies)) (UniProt Q15554); test: co-IP; human skeletal muscle biopsies of different ages lysed in 50 mM Tris-HCl, 150 mM NaCl, 0,1% NP40, sonicated; immunoprecipitation with TRF2 antibody (NB100-56506) overnight at 4 °C, Protein G Dynabeads; Western blot for FOXO3a
[6] = target: Telomeric repeat binding factor 2 (TRF2) (human (endogenous in BJ-HELT fibroblasts and skeletal muscle biopsies)) (UniProt Q15554); test: proximity ligation; PLA TRF2-FOXO3a in fixed BJ-HELT cells with siFOXO3a and exogenous full-length or truncated FOXO3a, treated with bleomycin

Row | binding [1] | binding [2] | binding [3] | binding [4] | binding [5] | binding [6] | Substance
1 | binds | binds | no binding | binds | binds | – | FOXO3a (from UniProt O43524 1-673)
2 | – | – | – | – | – | binds | full-length FOXO3a (pWPIR-FOXO3aWT-GFP) (from UniProt O43524 1-673)
